Data published in paper PMC6947505.
These are yes or no findings as the source states them, for the method shown. In cells and extracts the contact can be indirect. Some results given as binding are weak or reduced against the parent protein; the word gives no strength. Where a sequence is shown, tags or fusion partners need not be part of it.

How the values were obtained:
HA-p100 = biological target: T1, HA-p100 (UniProt Q00653); assay: co-IP; extracts of HEK293T cells transfected with tagged constructs; in some panels treated with EBSS and Baf
T1 sequence: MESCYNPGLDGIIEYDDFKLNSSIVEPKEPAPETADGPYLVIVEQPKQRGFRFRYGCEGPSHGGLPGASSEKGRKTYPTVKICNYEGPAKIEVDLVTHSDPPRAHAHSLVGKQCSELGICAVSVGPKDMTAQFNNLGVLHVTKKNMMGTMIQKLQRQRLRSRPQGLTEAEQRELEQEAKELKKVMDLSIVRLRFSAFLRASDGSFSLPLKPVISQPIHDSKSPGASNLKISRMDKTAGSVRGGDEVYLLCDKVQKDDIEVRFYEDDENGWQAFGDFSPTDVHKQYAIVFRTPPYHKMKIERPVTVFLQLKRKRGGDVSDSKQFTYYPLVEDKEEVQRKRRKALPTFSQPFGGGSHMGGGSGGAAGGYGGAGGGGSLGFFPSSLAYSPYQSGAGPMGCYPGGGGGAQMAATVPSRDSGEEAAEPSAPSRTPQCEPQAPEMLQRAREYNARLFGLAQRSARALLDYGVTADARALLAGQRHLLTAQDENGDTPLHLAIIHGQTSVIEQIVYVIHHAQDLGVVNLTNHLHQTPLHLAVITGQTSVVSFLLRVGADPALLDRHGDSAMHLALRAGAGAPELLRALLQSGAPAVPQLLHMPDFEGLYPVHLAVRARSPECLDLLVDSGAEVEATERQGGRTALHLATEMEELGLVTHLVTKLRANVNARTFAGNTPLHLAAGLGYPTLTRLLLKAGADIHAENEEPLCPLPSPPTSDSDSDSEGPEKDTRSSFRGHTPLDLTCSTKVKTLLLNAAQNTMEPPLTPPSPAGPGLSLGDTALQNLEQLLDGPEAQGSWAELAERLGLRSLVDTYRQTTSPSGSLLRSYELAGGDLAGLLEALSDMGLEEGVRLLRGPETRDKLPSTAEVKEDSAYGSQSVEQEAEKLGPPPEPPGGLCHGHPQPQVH

[1] = biological target: T2, p100 (as in the supplementary figures, tag not shown) (UniProt Q00653); assay: co-IP; Figure S3A; cells and constructs not shown
T2 sequence: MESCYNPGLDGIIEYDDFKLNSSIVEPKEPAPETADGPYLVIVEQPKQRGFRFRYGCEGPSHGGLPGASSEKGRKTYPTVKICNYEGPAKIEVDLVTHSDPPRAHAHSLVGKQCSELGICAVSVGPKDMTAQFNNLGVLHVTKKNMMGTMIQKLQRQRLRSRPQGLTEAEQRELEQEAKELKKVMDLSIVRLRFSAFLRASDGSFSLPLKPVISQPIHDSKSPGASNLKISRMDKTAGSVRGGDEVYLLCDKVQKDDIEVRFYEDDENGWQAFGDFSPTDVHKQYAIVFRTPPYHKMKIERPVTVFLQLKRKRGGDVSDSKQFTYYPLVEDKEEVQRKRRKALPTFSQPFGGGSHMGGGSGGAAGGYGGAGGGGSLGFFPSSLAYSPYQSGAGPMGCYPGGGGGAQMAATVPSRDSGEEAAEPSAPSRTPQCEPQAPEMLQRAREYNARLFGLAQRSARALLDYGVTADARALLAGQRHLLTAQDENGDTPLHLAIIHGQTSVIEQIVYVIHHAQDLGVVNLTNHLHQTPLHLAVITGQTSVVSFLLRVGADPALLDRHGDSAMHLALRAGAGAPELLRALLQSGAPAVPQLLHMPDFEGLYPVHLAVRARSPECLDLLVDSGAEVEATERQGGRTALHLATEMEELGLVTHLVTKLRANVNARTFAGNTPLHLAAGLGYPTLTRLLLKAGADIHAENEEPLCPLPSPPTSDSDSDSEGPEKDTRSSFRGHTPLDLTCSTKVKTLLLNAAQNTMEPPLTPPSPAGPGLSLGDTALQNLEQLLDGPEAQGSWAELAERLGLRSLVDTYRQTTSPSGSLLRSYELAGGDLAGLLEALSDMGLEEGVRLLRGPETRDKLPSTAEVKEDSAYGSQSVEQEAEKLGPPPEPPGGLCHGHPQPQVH

[2] = biological target: T3, p52 (as in the supplementary figures, tag not shown) (UniProt Q00653); assay: co-IP; Figure S3A; cells and constructs not shown
T3 sequence: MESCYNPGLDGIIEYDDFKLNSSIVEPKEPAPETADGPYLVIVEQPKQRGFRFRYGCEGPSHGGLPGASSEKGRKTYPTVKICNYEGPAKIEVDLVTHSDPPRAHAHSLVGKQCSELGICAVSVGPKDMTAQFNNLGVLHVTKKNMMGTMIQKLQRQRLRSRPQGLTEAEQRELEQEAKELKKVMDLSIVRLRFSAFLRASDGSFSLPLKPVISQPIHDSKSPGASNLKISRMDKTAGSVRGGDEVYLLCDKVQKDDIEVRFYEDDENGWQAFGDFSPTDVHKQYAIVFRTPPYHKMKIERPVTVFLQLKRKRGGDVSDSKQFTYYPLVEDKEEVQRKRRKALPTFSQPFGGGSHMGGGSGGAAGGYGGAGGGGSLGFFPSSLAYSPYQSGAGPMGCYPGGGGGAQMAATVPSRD

Flag-p100 (FL) = biological target: T4, Flag-p100 (FL) (UniProt Q00653); assay: co-IP; extracts of HEK293T cells transfected with tagged constructs; in some panels treated with EBSS and Baf
T4 sequence: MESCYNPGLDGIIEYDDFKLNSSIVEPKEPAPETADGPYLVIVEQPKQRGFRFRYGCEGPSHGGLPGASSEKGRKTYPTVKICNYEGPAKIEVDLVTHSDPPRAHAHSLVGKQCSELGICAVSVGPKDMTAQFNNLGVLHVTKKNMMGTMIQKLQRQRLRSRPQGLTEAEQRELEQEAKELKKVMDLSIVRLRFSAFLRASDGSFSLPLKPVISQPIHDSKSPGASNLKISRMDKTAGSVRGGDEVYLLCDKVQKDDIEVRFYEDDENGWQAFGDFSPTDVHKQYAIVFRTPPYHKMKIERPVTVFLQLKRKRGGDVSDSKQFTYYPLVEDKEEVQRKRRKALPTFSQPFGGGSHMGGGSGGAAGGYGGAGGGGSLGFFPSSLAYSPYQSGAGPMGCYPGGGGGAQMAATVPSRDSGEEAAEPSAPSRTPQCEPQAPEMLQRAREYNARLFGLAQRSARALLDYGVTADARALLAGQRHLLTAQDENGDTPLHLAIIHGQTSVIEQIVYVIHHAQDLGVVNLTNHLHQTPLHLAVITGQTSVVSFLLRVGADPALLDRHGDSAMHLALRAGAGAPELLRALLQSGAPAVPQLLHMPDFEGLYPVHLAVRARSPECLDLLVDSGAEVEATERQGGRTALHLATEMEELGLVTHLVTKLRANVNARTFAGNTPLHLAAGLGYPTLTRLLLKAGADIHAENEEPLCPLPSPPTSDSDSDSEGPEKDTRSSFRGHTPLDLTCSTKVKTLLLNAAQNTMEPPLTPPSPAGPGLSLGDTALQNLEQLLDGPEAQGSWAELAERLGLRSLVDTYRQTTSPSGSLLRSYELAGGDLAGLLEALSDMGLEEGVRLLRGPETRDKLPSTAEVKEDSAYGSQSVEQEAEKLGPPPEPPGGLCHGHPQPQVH

B1: Flag-NDP52 (protein, UniProt Q13137 1-446)
chain: MEETIKDPPTSAVLLDHCHFSQVIFNSVEKFYIPGGDVTCHYTFTQHFIPRRKDWIGIFRVGWKTTREYYTFMWVTLPIDLNNKSAKQQEVQFKAYYLPKDDEYYQFCYVDEDGVVRGASIPFQFRPENEEDILVVTTQGEVEEIEQHNKELCKENQELKDSCISLQKQNSDMQAELQKKQEELETLQSINKKLELKVKEQKDYWETELLQLKEQNQKMSSENEKMGIRVDQLQAQLSTQEKEMEKLVQGDQDKTEQLEQLKKENDHLFLSLTEQRKDQKKLEQTVEQMKQNETTAMKKQQELMDENFDLSKRLSENEIICNALQRQKERLEGENDLLKRENSRLLSYMGLDFNSLPYQVPTSDEGGARQNPGLAYGNPYSGIQESSSPSPLSIKKCPICKADDICDHTLEQQQMQPLCFNCPICDKIFPATEKQIFEDHVFCHSL
For B1, which binding (HA-p100) is on record?
Its binding is “binds”.

B2: TRIM14 (construct of the supplementary figures, tag not shown) (protein, UniProt Q14142 1-442)
chain: MAGAATGSRTPGRSELVEGCGWRCPEHGDRVAELFCRRCRRCVCALCPVLGAHRGHPVGLALEAAVHVQKLSQECLKQLAIKKQQHIDNITQIEDATEKLKANAESSKTWLKGKFTELRLLLDEEEALAKKFIDKNTQLTLQVYREQADSCREQLDIMNDLSNRVWSISQEPDPVQRLQAYTATEQEMQQQMSLGELCHPVPLSFEPVKSFFKGLVEAVESTLQTPLDIRLKESINCQLSDPSSTKPGTLLKTSPSPERSLLLKYARTPTLDPDTMHARLRLSADRLTVRCGLLGSLGPVPVLRFDALWQVLARDCFATGRHYWEVDVQEAGAGWWVGAAYASLRRRGASAAARLGCNRQSWCLKRYDLEYWAFHDGQRSRLRPRDDLDRLGVFLDYEAGVLAFYDVTGGMSHLHTFRATFQEPLYPALRLWEGAISIPRLP
How did the binding [1] turn out when B2 was run?
The binding was “binds”.

What about the binding [2] of the same binder?
Its binding is “binds”.

B3: Myc-TRIM14 (FL) (protein, UniProt Q14142 1-442)
chain: MAGAATGSRTPGRSELVEGCGWRCPEHGDRVAELFCRRCRRCVCALCPVLGAHRGHPVGLALEAAVHVQKLSQECLKQLAIKKQQHIDNITQIEDATEKLKANAESSKTWLKGKFTELRLLLDEEEALAKKFIDKNTQLTLQVYREQADSCREQLDIMNDLSNRVWSISQEPDPVQRLQAYTATEQEMQQQMSLGELCHPVPLSFEPVKSFFKGLVEAVESTLQTPLDIRLKESINCQLSDPSSTKPGTLLKTSPSPERSLLLKYARTPTLDPDTMHARLRLSADRLTVRCGLLGSLGPVPVLRFDALWQVLARDCFATGRHYWEVDVQEAGAGWWVGAAYASLRRRGASAAARLGCNRQSWCLKRYDLEYWAFHDGQRSRLRPRDDLDRLGVFLDYEAGVLAFYDVTGGMSHLHTFRATFQEPLYPALRLWEGAISIPRLP
For B3, which binding (Flag-p100 (FL)) is on record?
The binding was “binds”.
